From PubChem BioAssay AID1487 (National Center for Advancing Translational Sciences (NCATS), 2009)
The other results are listed elsewhere or left out. Shown are side measurements of this screen, not its main read-out; they come without a call. The list favours compounds with an active or inconclusive main result. The note in brackets gives the kind of curve behind each potency; many fits are weak.

Experiment: qHTS Assay for Modulators of Lamin A Splicing
Settings: HeLa LMNA splicing GFP/RFP minigene ratio, 48 h
Outline: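 S3 HeLa cells stably expressing lamin A-EGFP splicing minigene plus DsRed2, 600 cells/well, 48 h compound exposure at 37C. Laser-scanning cytometry; analysed as GFP (500-530 nm)/RFP (575-640 nm) total intensity ratio; 0.5% DMSO vehicle.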

[1] = measured here: RFP viability control channel
[2] = measured here: GFP splicing reporter channel

Structure (SMILES)	AC50 [1]	AC50 [2]
COc1cccc(-c2nn(C)c3sc(C(=O)NCc4ccccn4)cc23)c1	22.4 µM [rising, single point]	
O=C(N/N=C/c1cccs1)c1cc(-c2ccncc2)nc2ccccc12	0.794 µM [rising, full curve]	0.501 µM [rising, full curve]
CCOc1ccc2c(c1)-c1c(ssc1=S)C(C)(C)N2C		25.1 µM [rising, single point]
O=S(=O)(Nc1cccc2ccccc12)c1cccc2nonc12	35.5 µM [falling, single point]	25.1 µM [falling, single point]
O=C(CSc1cccc[n+]1[O-])NC(=O)c1ccc(OC(F)F)cc1	10 µM [falling, partial curve, poor fit]	
CCOc1ccc(N=c2cc(-c3ccc(OC)cc3)oc3ccccc23)cc1	11.2 µM [rising, partial curve, poor fit]	
CS(=O)(=O)c1nc(-c2ccc(F)cc2)cc(C(F)(F)F)n1	5.01 µM [falling, full curve]	7.08 µM [falling, partial curve]
COc1cc(S(=O)(=O)Nc2ccc(C)cc2)ccc1N=Cc1c(C)c(C#N)c(=O)n(C)c1O		35.5 µM [rising, single point]
COc1ccc(Nc2ncnc3scc(-c4ccc(OC)cc4)c23)cc1	15.8 µM [rising, single point]	
Cc1cc(N2C(=O)NC(=O)CC2C)c(C)cc1C(C)C (stereo not drawn)	35.5 µM [rising, single point]	
Cc1nc2ccc(NC(=O)c3ccc(F)c(S(=O)(=O)N4CCOCC4)c3)cc2s1	11.2 µM [rising, partial curve]	8.91 µM [rising, partial curve]
CCN(CC)S(=O)(=O)c1cccc(NC(=O)C(=O)c2c(-c3ccccc3)cc3ccccn23)c1	31.6 µM [rising, single point]	
CCC(C)N(C(=O)COC(=O)CNC(=O)c1ccccc1F)C1CCS(=O)(=O)C1 (stereo not drawn)	0.0447 µM [falling, full curve, poor fit]	
Cc1ccc(S(=O)(=O)Oc2cccc(/C=N/n3cnnc3)c2)cc1	14.1 µM [rising, partial curve]	12.6 µM [rising, partial curve]
CCOC(=O)C(NC(=O)NCc1ccccc1)(OCC)C(F)(F)F (stereo not drawn)	35.5 µM [rising, single point]	
C=CCN(c1ccc(C(=O)Nc2ccc(C)c(C)c2)cc1)S(C)(=O)=O	14.1 µM [rising, partial curve]	12.6 µM [rising, partial curve, poor fit]
Cc1cc2nnc(SCC(=O)NCC3CCCO3)n2c2ccccc12 (stereo not drawn)	5.01 µM [rising, single point]	
O=C(CCCN1C(=O)c2ccccc2C1=O)N1CCOCC1	17.8 µM [rising, partial curve, poor fit]	

Structure (SMILES)	AC50 [1]	AC50 [2]
Cc1nonc1C1CCCN1C(=O)c1cc(COc2ccc(F)cc2F)on1 (stereo not drawn)		5.62 µM [rising, partial curve, poor fit]
COc1ccc(C2=NCC(CSc3nnc(-c4ccc5c(c4)OCO5)o3)S2)cc1 (stereo not drawn)		5.62 µM [rising, partial curve, poor fit]
CC(CO)Nc1nc(SCc2ccccc2)nc2sc3c(c12)CCC3 (stereo not drawn)	22.4 µM [falling, partial curve, poor fit]	
CC(C)(C)n1nc2c(c1NC(=O)Cc1cccc3ccccc13)CS(=O)(=O)C2	3.98 µM [falling, full curve, poor fit]	6.31 µM [falling, full curve, poor fit]
CN(C)c1ccc(CNC(=O)CN2C(=O)c3cccnc3Oc3ccc(Cl)cc32)cc1	0.0282 µM [falling, partial curve]	0.0398 µM [falling, partial curve]
O=C1NN=COc2ccccc21	0.398 µM [rising, full curve, poor fit]	
CCn1c2ccccc2c2nnc(SCc3ccccc3)nc21	0.794 µM [rising, partial curve]	15.8 µM [rising, single point]
CN(C)CCN(Cc1cc2cc3c(cc2[nH]c1=O)OCCO3)C(=S)NCC1CCCO1 (stereo not drawn)		0.0141 µM [rising, partial curve, poor fit]
CCOC(=O)c1cccc(NC(=O)Cn2c(CC(=O)N3CCCC3)nc3ccccc32)c1	11.2 µM [rising, single point]	
COc1ccc(NC(=S)N(CCc2c(C)[nH]c3ccc(C)cc23)Cc2cccnc2)cc1	15.8 µM [rising, single point]	
COc1ccc(-c2nc3cnc(Nc4cccc(OC)c4)nc3n(C)c2=O)cc1	8.91 µM [falling, partial curve]	10 µM [falling, partial curve]
Cc1ccc(S(=O)(=O)N2CCN(C(C)C)CC2)cc1	0.0112 µM [rising, full curve, poor fit]	
CCc1nnc(NC(=O)CSc2nnc(CNc3ccc(F)cc3)n2C2CCCCC2)s1	20 µM [rising, single point]	5.62 µM [rising, partial curve]
COc1ccc(S(=O)(=O)N(Cc2ccccc2)Cc2nc(-c3ccccc3)no2)cc1	25.1 µM [rising, single point]	
CCNc1cc2n(c(=O)n1)CCc1cc(OC)c(OC)cc1-2	31.6 µM [rising, single point]	
Cc1sc(N/N=C/c2cccnc2)nc1-c1ccccc1	11.2 µM [falling, partial curve]	7.08 µM [falling, partial curve, poor fit]
FC(F)(F)c1cccc(NC(=S)NCC(c2cccnc2)N2CCOCC2)c1 (stereo not drawn)	3.16 µM [rising, single point]	
COc1ccc(CNC(=O)CCCN2C(=O)c3ccccc3C2=O)cc1		0.794 µM [rising, full curve, poor fit]

Sorted by molar mass (smallest number first): some entries from above.
Structure (SMILES)	AC50 [1]	AC50 [2]
Cc1nonc1C1CCCN1C(=O)c1cc(COc2ccc(F)cc2F)on1 (stereo not drawn)		5.62 µM [rising, partial curve, poor fit]
COc1ccc(C2=NCC(CSc3nnc(-c4ccc5c(c4)OCO5)o3)S2)cc1 (stereo not drawn)		5.62 µM [rising, partial curve, poor fit]
COc1ccc(S(=O)(=O)N(Cc2ccccc2)Cc2nc(-c3ccccc3)no2)cc1	25.1 µM [rising, single point]	
